The list shows a part of the results.
system: T1, CTL2-GFP (C. trachomatis L2/434/Bu, GFP-expressing); set-up: species or system HeLa; Intracellular C. trachomatis growth in HeLa cells, bulk GFP fluorescence relative to DMSO; conditions: bulk GFP, single well; 28.5 h, 10 µM; inhibitor
T1 construct: L2/434/Bu, GFP-expressing

Structure (SMILES)	% of control remaining
COc1cc2c(cc1OC)CN(C(=O)CSc1nc3c(c(-c4cccs4)c1C#N)CN(C)CC3)CC2 [CBK267462]	116.577%
CCNS(=O)(=O)c1ccc(NS(=O)(=O)Cc2ccccc2)cc1 [CBK268257]	127.736%
C=CCn1cc(CN(CCN(C)C)Cc2ccc(C)o2)c(C)n1 [CBK282844]	107.819%
FC(F)(F)C1=NC(C(F)(F)F)=NP(N2CCOCC2)(N2CCOCC2)=N1 [CBK261042]	103.438%
CCCCN(C)S(=O)(=O)NCCc1cn2ccccc2n1 [CBK304543]	98.9915%
C=CCNCc1cc2c(C)nn(-c3ccc(F)cc3)c2[nH]c1=O [CBK283117]	77.5513%
CN1CCN(c2ccccc2NC(=O)CSc2ccc(Cl)cc2)CC1 [CBK267941]	117.003%
CCOCCc1nsc(NS(=O)(=O)c2cccc(Cl)c2C)n1 [CBK034245]	100%
O=C(O)c1ccccc1C(=O)OCCN1CCOCC1 [CBK261462]	125.523%
O=C(Cc1ccc(Cl)c(Cl)c1)NCCc1c[nH]c2ccc(Cl)cc12 [CBK159749]	109.444%
C=CCNc1nc(NCCN2CCOCC2)nc(N2CCOCC2)n1 [CBK263074]	101.159%
O=C(O)CNS(=O)(=O)c1c(F)c(F)c(F)c(F)c1F [CBK269986]	140.403%
COc1ccc2[nH]cc([C@@H]3CCC[C@H](NC(=O)C4CCCO4)C3)c2c1 (stereo partly shown) [CBK284699]	93.8602%
O=C(c1cncnc1)N1CC[C@H](c2nc3cc(F)ccc3[nH]2)C1 [CBK289376]	124.599%
Cc1ccc(S(=O)(=O)N2CCSC2C(=O)O)cc1 (stereo not shown) [CBK286964]	86.32%
O=C(O)c1ccccc1C(=O)N1CCN(Cc2ccc3c(c2)OCO3)CC1 [CBK074751]	87.697%
COc1ccccc1-c1cn2ccnc2c(Nc2cccc(Cl)c2)n1 [CBK066399]	185.493%
Cc1ccc(C2(C(=O)N3CCCC3)CCN(S(=O)(=O)c3ccc(C)cc3)CC2)cc1 [CBK008752]	116.906%
Cc1csc(C(Cc2ccsc2)NC(=O)Cc2ccccn2)n1 (stereo not shown) [CBK285097]	130.543%
CCn1c(C)nc2cc(NC(=O)c3ccc(CN(C)C)cc3)ccc21 [CBK281880]	169.262%
O=c1sn(C2CCCCC2)c(=O)n1Cc1ccc(F)cc1 [CBK113604]	108.84%
O=C(O)c1nccnc1-c1ccc(COc2cccc3ccccc23)cc1 [CBK050810]	105.76%
COc1cc(NC(=O)CC2(CC(=O)O)CCCCC2)ccc1N1CCCC1=O [CBK296637]	103.222%
Cc1cc(C2CCCN2C(=O)c2ccc(C(F)(F)F)nc2)on1 (stereo not shown) [CBK305761]	92.5204%
O=C(Nc1ccccn1)c1cnn(-c2ccc(Cl)cc2)c1C(F)(F)F [CBK107442]	83.4468%
COc1cc2c(cc1NC(=O)CN(C)S(=O)(=O)c1ccc(Cl)cc1)oc1ccccc12 [CBK267404]	135.691%
Cn1c(N2CC[C@H](O)C2)nc2cc(C(=O)NCCC3CCCC3)ccc21 [CBK307447]	152.538%

Structure (SMILES)	% of control remaining
Cc1ccc2ncnc(NCCCCCC(=O)O)c2c1 [CBK287256]	123.772%
CC(=O)Nc1ccc(S(=O)(=O)N(C)c2ccccn2)cc1Cl [CBK044789]	128.598%
O=c1oc(-c2cccnc2)nn1Cc1ccccc1F [CBK283774]	143.018%
Cc1ccccc1OCc1nnc(SCC(N)=O)n1-c1ccccc1 [CBK268808]	128.279%
O=C(c1csnn1)N1CCc2ccccc21 [CBK200408]	118.383%
Cc1ccc(NC(=O)c2cc(C)[nH]n2)c(C)n1 [CBK200387]	115.072%
O=C(Nc1nc2ccccc2s1)c1cnccn1 [CBK058664]	126.443%
CC(C)[C@@H](CO)Nc1nc(-c2ccc(S(C)(=O)=O)cc2)cnc1N [CBK063750]	161.238%
CC(C)(C)C1CCc2c(sc(NC(=S)NC(=O)COc3ccccc3)c2C(N)=O)C1 (stereo not shown) [CBK268634]	155.367%
O=C(Nc1ccc2[nH]c(=O)[nH]c2c1)c1ccc2[nH]ccc2c1 [CBK149083]	98.8881%
CC(C)[C@H](CO)Nc1nccnc1-c1ccccc1CO [CBK037408]	113.595%
CNC(=O)C1/C(=N\O)c2ccccc2N1C(C)=O (stereo not shown) [CBK006569]	105.748%
Cc1nc(NCCc2cnc(=O)n(C)c2O)cc(C2CCOC2)n1 (stereo not shown) [CBK307559]	98.3416%
CCN(CC)CC(C)C(O)(c1ccc(Cl)cc1)c1ccc(Cl)cc1 (stereo not shown) [CBK012146C]	118.53%
COc1cc(C2C3=C(CC(C)(C)CC3=O)OC3=C2C(=O)CC(C)(C)C3)ccc1OCC(=O)O [CBK262379]	121.439%
CCCCOc1nccnc1-c1ccc(C)c(C)c1 [CBK106870]	100%
Cc1ccc(C(C)(C)C)c(OC(=O)c2cnc(C)cn2)c1 [CBK090261]	105.626%
CN(C)CCCC(=O)NCc1ccc(-c2csnn2)cc1 [CBK149288]	144.442%
O=C(Nc1ccc(CCO)cc1)c1cnc(-c2ccc(Cl)cc2)c(-c2ccco2)c1 [CBK037457]	141.558%
Cc1c(O)cccc1Nc1cc(-c2cccc(N(C)C)c2)ncn1 [CBK036995]	140.692%
CCN(CC)C(=O)Cn1nc(C)n2c(cc3sc(C)cc32)c1=O [CBK284064]	117.139%
O=C(c1ccc(F)cc1)N1C[C@@H](c2ccsc2)[C@@H]2CN(Cc3ccccc3)CC[C@@H]21 [CBK285635]	154.703%
Cc1csc(C(Cc2ccsc2)NCC2=CCCOC2)n1 (stereo not shown) [CBK282439]	119.201%
COc1ccc(C(=O)N2CC[C@H]3NC(=O)N(c4ccccc4)C(=O)[C@H]32)cc1 [CBK289281]	124.911%
O=C1COc2ccccc2C/C=C/CC2(CCN(C(=O)CCc3cccnc3)CC2)CN1 [CBK292127]	116.301%
CN(C)S(=O)(=O)NNC(=O)c1c[nH]c2ccccc12 [CBK267698]	108.259%
COC(=O)c1c(O)noc1C [CBK023348]	107.735%

Structural class: the compounds so far containing an aryl thioether with sulfur outside any ring
Structure (SMILES)	% of control remaining
COc1cc2c(cc1OC)CN(C(=O)CSc1nc3c(c(-c4cccs4)c1C#N)CN(C)CC3)CC2 [CBK267462]	116.577%
CN1CCN(c2ccccc2NC(=O)CSc2ccc(Cl)cc2)CC1 [CBK267941]	117.003%
Cc1ccccc1OCc1nnc(SCC(N)=O)n1-c1ccccc1 [CBK268808]	128.279%

Some values from the results shown.
% of control remaining, CC(C)(C)C1CCc2c(sc(NC(=S)NC(=O)COc3ccccc3)c2C(N)=O)C1 (stereo not shown) [CBK268634] reads 155.367%
% of control remaining, CC(C)[C@@H](CO)Nc1nc(-c2ccc(S(C)(=O)=O)cc2)cnc1N [CBK063750] reads 161.238%

Next entries follow.

Structure (SMILES)	% of control remaining
O=C(Cn1nc(C(=O)O)c2ccccc2c1=O)NCc1ccc(Cl)cc1Cl [CBK295320]	150.325%
COc1ccc(S(=O)(=O)N(C)CC(=O)N2CCN(Cc3ccccc3)CC2)cc1C [CBK268221]	114.536%
CCC(Oc1cc(C)ccc1Cl)C(=O)Nc1sccc1C(N)=O (stereo not shown) [CBK268152]	108.893%
CCc1cc2cc3c(cc2nc1SCC(=O)Nc1cccc(C(C)=O)c1)OCO3 [CBK108551]	100%
O=S(=O)(NCCCn1ccnc1)c1cccs1 [CBK269912]	94.0795%
O=[N+]([O-])c1cccc(-c2ccc(-c3nn4c(Cc5ccccc5)nnc4s3)o2)c1 [CBK267310]	169.541%
CCOC(=O)c1cnc(SCc2nc(N)nc(Nc3ccc(F)cc3)n2)nc1N [CBK098477]	112.86%
Cn1c(=O)n(CCN2CCOCC2)c(=O)c2c1nc1n2CCN1c1ccccc1 [CBK269328]	143.723%
Cc1cc(C(=O)N2CCC(Cc3ccccc3-c3ccccc3)(C(=O)N(C)C)CC2)cs1 [CBK285676]	96.787%
CC1(C(=O)N2CCc3onc(-c4ccccc4F)c3C2)CCCO1 (stereo not shown) [CBK282660]	101.031%
O=C(CN1C(=O)N2CCCN=C2c2ccccc21)NCc1ccccc1 [CBK284403]	125.26%
Cc1ccc(NC(=O)C(=O)NCCCN2CCOCC2)cc1Cl [CBK264806]	100%
O=C(CN1C(=O)CCC1=O)Nc1nc2ccccc2s1 [CBK287345]	107.546%
COc1cc(C)c(-c2nc(C)nc(C)c2C)c(C)c1 [CBK306711]	168.444%
O=C(CN1Cc2ccccc2C1)N1CCCC1c1nc2ccccc2[nH]1 (stereo not shown) [CBK283710]	146.759%
O=C(Cn1ncc2cccn2c1=O)c1ccc(F)cc1 [CBK283627]	130.459%
O=C(NCCN1CCOCC1)c1sc2cc(F)ccc2c1Cl [CBK018212]	78.7538%
N#Cc1nccnc1N1CCN(Cc2ccc3c(c2)OCO3)CC1 [CBK011284]	135.955%
O=C(O)C1CCN(C(=O)NCc2ccc(F)cc2)CC1 [CBK156070]	114.393%
COC(=O)[C@@H](C)NC(=O)[C@@H]1CN(C(=O)c2cccc(F)c2)CCN1C(=O)C1CCCCC1 [CBK289621]	118.127%
CC(C)NC(=O)N1Cc2nc[nH]c2C[C@H]1c1nc(-c2ccc3c(c2)OCO3)no1 [CBK289001]	130.157%
O=C(NC1CCCCC1)NS(=O)(=O)c1ccc(CCNC(=O)c2cccs2)cc1 [CBK011888]	131.529%
CN(C)S(=O)(=O)c1ccc(C(=O)C2=C(O)C(=O)N(CCN3CCCCC3)C2c2cccnc2)cc1 (stereo not shown) [CBK264700]	109.906%
CCn1cc(C(=O)O)c(=O)c2cnc(N3CCN(C(=S)NC(=O)c4cccs4)CC3)nc21 [CBK265753]	97.7576%
NC(=O)C1(Cc2ccc(-c3ccccc3)cc2)CCN(C(=O)COc2ccccc2)CC1 [CBK285773]	124.237%

Source: publication PMC12040169 (PLOS Biology, 2025)
